Measurements taken from PubChem BioAssay AID262 (DTP/NCI, 2004).
The list is a part of this screen's results and no random one: it gathers some chemical classes. Not every dose and run of a compound is shown. T/C is the treated group as % of the vehicle group. Schedule codes are those of the source, read here as Q, the interval in days (D) or hours (H), X, the number of doses. Some T/C values are followed by the survivors on the day toxicity was checked; without a count or a note in brackets, all were alive then. Some entries give survivors of the animals treated and no T/C: the source files T/C as zero there, which appears to mark a toxic dose or a test without result, not a measured value. Survivors were counted at the toxicity check; its day is shown where the source gives one, and later deaths do not show.

Test system: LX-1 lung xenograft sc, nude mice, tumor weight
Assay: NCI In Vivo Anticancer Drug Screen. Data for tumor model Human Lung LX-1 Xenograft (subcutaneous) in NU/NU Swiss (nude) mice
Conditions: T/C endpoint: optimum tumor weight change, schedule: Q04DX003 (ip), higher T/C = larger tumour
Method: The antitumor activity of compounds was measured in mice bearing transplantable tumors. Survival or tumor size were measured and the results are expressed as the measurement made in the treated group (T) divided by the measurement made in the vehicle treated control group (C). The tumor model used in this assay is Human Lung LX-1 Xenograft (subcutaneous) in NU/NU Swiss (nude) mice

Structure (SMILES): Nc1cc([As]=O)ccc1O (stereo not given)
- T/C (dose: 50.0 mg/kg/injection, vehicle: saline with Tween-80, evaluated on day 38): 88 % of control
- survivor count (dose: 100.0 mg/kg/injection, vehicle: saline with Tween-80): 2 of 5 on day 38
- survivor count (dose: 200.0 mg/kg/injection, vehicle: saline with Tween-80): 0 of 5 on day 38

Structure (SMILES): C[As](C)SC1OC(CO)C(O)C(O)C1O (stereo not given)
- T/C (dose: 3.0 mg/kg/injection, vehicle: saline, evaluated on day 34): 49 % of control [4 of 5 alive on day 34]
- survivor count (dose: 6.0 mg/kg/injection, vehicle: saline): 3 of 5 on day 34
- T/C (dose: 12.0 mg/kg/injection, vehicle: saline, evaluated on day 34): 72 % of control

Structure (SMILES): CC1(C)CN1P(=O)(Nc1ncccn1)N1CC1(C)C (stereo not given)
- T/C (dose: 50.0 mg/kg/injection, vehicle: saline, evaluated on day 40): 67 % of control
- T/C (dose: 100.0 mg/kg/injection, vehicle: saline, evaluated on day 40): 44 % of control [4 of 5 alive on day 40]
- T/C (dose: 200.0 mg/kg/injection, vehicle: saline, evaluated on day 40): 44 % of control
- survivor count (dose: 400.0 mg/kg/injection, vehicle: saline): 0 of 5 on day 40
